From patent US20200222347A1, “ANTIMICROBIALS AND METHODS OF USE THEREOF” (priority 2013, published 2020)
At least one compound was matched to its structure with a doubt left.

Assays:
Assay in all cases: Kirby-Bauer disc diffusion antimicrobial susceptibility
Format in all cases: cell-based
S. aureus 6538 = settings: 100 mM, carrier water; 18-24 hours for aerobes
P. acnes 6919 = settings: 100 mM, carrier water
S. pyogenes = settings: 100 mM, carrier water

Structure (SMILES)	effectiveness against S. aureus 6538 (S. aureus 6538)	effectiveness against P. acnes (growth inhibition) (P. acnes 6919)	effectiveness against S. pyogenes (S. pyogenes)
Oc1cc(O)c2cc(O)c(-c3cc(O)c(O)c(O)c3)[o+]c2c1 [Delphinidin, delphinidin]	limited growth		
Oc1ccc(-c2[o+]c3cc(O)cc(O)c3cc2O)cc1 [Pelargonidin, pelargonidin]	limited growth	limited growth	limited growth
